{"source": "PubChem BioAssay AID504791 (Drosophila RNAi Screening Center, 2011)", "aim": "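Genes whose knock-down strengthens or weakens small-RNA reporter silencing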 (primary screen)", "cell system": "Drosophila S2-derived reporter cells", "reagents": "long dsRNA against Drosophila genes, about 150-250 ng dsRNA per well (siRNA assay); about 80-120 ng (miRNA assay)", "time to read-out": "about 5 days (siRNA assay); about 4 days (miRNA assay)", "challenge": "copper sulfate induction of reporters: 25 µM (siRNA assay); 200 mM stated (miRNA assay), 1-2 days before reading", "read-out": "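Dual luciferase assay: Renilla to firefly signal ratio in each well, scaled to the mean ratio of its plate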", "units": "stable assay Renilla, run 1 in luminescence; stable assay firefly, run 1 in luminescence", "hit rule": "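First-pass picks had plate-scaled ratios over 1.5 for the siRNA assay, over 1.6 for the miRNA assay, or under 0.6; two distinct dsRNAs had to score alike on retest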", "note": "The screen tested about 23,000 reagents; shown is a random part of those that have a named target and a result. In the full data, 199 (0.86%) were called active. 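Plate-scaled ratios behind the calls are not deposited; printed light signals are raw; many rows marked increased or decreased are still called inactive.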 A number with no mark means an inactive call. The numbers tell different reagents against one gene apart. Not stated in the record: the direction of the score."}
{"gene": "bi (bifid)", "reagent": 1, "stable assay Renilla, run 1": 5138, "stable assay firefly, run 1": 4.36e5}
{"gene": "DhpD (Dihydropterin deaminase)", "reagent": 1, "stable assay Renilla, run 1": 9867, "stable assay firefly, run 1": 3.42e5}
{"gene": "CG4267", "reagent": 1, "stable assay Renilla, run 1": 8363, "stable assay firefly, run 1": 3.76e5}
{"gene": "Galphaf (G protein alpha subunit f)", "reagent": 1, "stable assay Renilla, run 1": 6886, "stable assay firefly, run 1": 3.08e5}
{"gene": "CG14297", "reagent": 1, "stable siRNA reporter change": "reporter ratio lowered past the hit cutoff", "stable assay Renilla, run 1": 6027, "stable assay firefly, run 1": 5.77e5}
{"gene": "CG17321", "reagent": 1, "stable assay Renilla, run 1": 6688, "stable assay firefly, run 1": 3.72e5}
{"gene": "Dpit47 (DNA polymerase interacting tpr containing protein of 47kD)", "reagent": 1, "stable assay Renilla, run 1": 6491, "stable assay firefly, run 1": 3.49e5}
{"gene": "sut2 (sugar transporter 2)", "reagent": 1, "stable assay Renilla, run 1": 8985, "stable assay firefly, run 1": 4.79e5}
{"gene": "Mabi (Mabiki)", "reagent": 1, "stable assay Renilla, run 1": 4691, "stable assay firefly, run 1": 4.86e5}
{"gene": "cv-c (crossveinless c)", "reagent": 1, "stable assay Renilla, run 1": 7631, "stable assay firefly, run 1": 3.94e5}
{"gene": "cv-c (crossveinless c)", "reagent": 2, "stable assay Renilla, run 1": 6735, "stable assay firefly, run 1": 4.53e5}
{"gene": "cv-c (crossveinless c)", "reagent": 3, "stable assay Renilla, run 1": 6512, "stable assay firefly, run 1": 3.36e5}
{"gene": "cv-c (crossveinless c)", "reagent": 4, "stable assay Renilla, run 1": 6395, "stable assay firefly, run 1": 4.58e5}
{"gene": "cv-c (crossveinless c)", "reagent": 5, "stable assay Renilla, run 1": 5240, "stable assay firefly, run 1": 3.41e5}
{"gene": "cv-c (crossveinless c)", "reagent": 6, "stable assay Renilla, run 1": 8867, "stable assay firefly, run 1": 4.29e5}
{"gene": "cv-c (crossveinless c)", "reagent": 7, "stable assay Renilla, run 1": 2528, "stable assay firefly, run 1": 2.85e5}

Look-ups from above.
DhpD (Dihydropterin deaminase), stable assay Renilla, run 1 → 9867
Value of cv-c (crossveinless c) #3 under “stable assay Renilla, run 1”: 6512
